Drawing on PubChem BioAssay AID493014 (National Center for Advancing Translational Sciences (NCATS), 2011), this text covers AC50 for 63 molecules.

This test is described as follows: qHTS Assay to Find Inhibitors of Chronic Active B-Cell Receptor Signaling. The note with it: ABC-DLBCL IkBa-CBG/CBR reporter, luminescence ratio (green luciferase fused to IkBa over red control in TMD8 lymphoma cells), 4 h. The procedure, abridged:
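Concentration-response series (up to 46 uM) were applied to TMD8 dual-reporter cells for 4 h at 37C with doxycycline. Green/red ratio, after filter-overlap correction, defined %Activity; red signal alone was normalised to basal cells and zero luminescence.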
On the technique in general: In qHTS, concentration-response curves come from the screen itself.

Setting [1] is: measured here: CBR red luminescence, cell number.
Setting [2] is: measured here: IkBa-CBG green luminescence.

SMILES strings stand for the structures. The list shows a part of the results. Further columns of the screen follow, without active or inactive calls. Compounds called inactive in the main read-out are mostly missing here. Words in brackets tell the shape of the fitted curve; partial curves, single points and poor fits give uncertain potencies.

As to `COc1ccc(C(=O)NCCCn2nc(C)cc2C)cc1S(=O)(=O)N1CCOCC1`, the AC50 under setting [1] was 0.58 µM [falling, full curve].

In the case of `CSc1ccc(/C=N/S(=O)(=O)c2ccccc2)cc1`, the AC50 under setting [1] was 2.24 µM [rising, partial curve, poor fit].

In the case of `CC(=O)Nc1c(C(=O)N2CCOCC2)cnn1-c1ccc(C)c(C)c1`, the AC50 under setting [1] was 15.8 µM [falling, single point].

Take `Oc1c(C=NCc2ccncc2)sc2ccccc12`: the AC50 under setting [1] was 16.4 µM [falling, partial curve, poor fit].

Consider `NC(=NC(=O)c1ccc(OCC(F)(F)F)nc1)c1ccccc1`, for which, under setting [1], the half-maximal activity concentration (AC50) is 10 µM [rising, partial curve].

For the molecule `O=C(Nc1cnc2ccccc2c1)c1ccco1`, the half-maximal activity concentration (AC50) under setting [1] was 25.1 µM [falling, single point].

As to `CCOC(=O)C1CCN(Cc2c(C(=O)N3CCOCC3)nc3c(C)cccn23)CC1`, the concentration at half-maximal activity (AC50) under setting [1] was 0.0891 µM [falling, full curve, poor fit].

Turning to `CCOC(=O)Cn1c(CN2CCc3ccccc3C2)nc2c1c(=O)n(C)c(=O)n2C`, the AC50 under setting [1] is 0.146 µM [rising, full curve, poor fit].

Turning to `Cc1ccc(NC(=O)CN(C)C(=O)COc2ccccc2-c2ccccc2)cc1`, under setting [1], the concentration at half-maximal activity (AC50) is 29.1 µM [falling, single point].

For the molecule `CCOC(=O)C1(Cc2cccc(F)c2)CCN(C(=O)C2CCOCC2)CC1`, the half-maximal activity concentration (AC50) under setting [1] was 0.224 µM [rising, full curve, poor fit].

Consider `Cc1ccc(-c2cc3nc(-c4ccccc4)cc(N)n3n2)cc1`, for which, under setting [1], the half-maximal activity concentration (AC50) was 0.411 µM [falling, full curve].

In the case of `CCCCC(=O)Nc1ccc(C(=O)NNC(=S)NC(=O)c2cccs2)cc1`, under setting [1], the AC50 was 3.26 µM [falling, partial curve, poor fit].

Take `CCOc1cc(/C=N/NC(=O)c2ccc(O)cc2)ccc1Oc1nc(Cl)ncc1F`: under setting [1], the half-maximal activity concentration (AC50) is 2.51 µM [falling, full curve].

Consider `Cc1cccc(NC(=O)c2ccc(N3C(=O)C4C5C=CC(C6CC56)C4C3=O)cc2)c1` (stereo not drawn), for which the concentration at half-maximal activity (AC50) under setting [1] was 3.55 µM [falling, partial curve].

Consider `COC(=O)CNC(c1ccccc1)c1cc(Cl)ccc1NC(=O)c1cccc(Cl)c1` (stereo not drawn), for which the AC50 under setting [1] was 29.1 µM [falling, single point].

Regarding `Cc1cc(C)c(S(=O)(=O)/N=C2/C=C(Sc3ncn[nH]3)C(=O)c3ccccc32)cc1C`, under setting [1], the AC50 is 3.26 µM [falling, partial curve].

As for `CC1=CC(C)(C)Nc2ccc(OC(=O)c3ccco3)cc21`, under setting [1], the concentration at half-maximal activity (AC50) was 7.94 µM [falling, partial curve].

As for `CCOc1ccc(/C=N/NC(=O)c2ccccc2O)cc1CN1CC2CC(C1)c1cccc(=O)n1C2` (stereo not drawn), the half-maximal activity concentration (AC50) under setting [1] was 1.3 µM [falling, partial curve].

Regarding `CC(=O)Nc1ccc(NC(=O)C(C)OC(=O)C2(c3ccc(F)cc3)CCCC2)cc1` (stereo not drawn), the AC50 was 22.4 µM [falling, single point] under setting [1] and 14.1 µM [rising, partial curve, poor fit] under setting [2].

On to `CCOC(=O)C1(Cc2cccc(OC)c2)CCN(Cc2cccnc2)CC1`, for which the AC50 under setting [1] was 11.2 µM [falling, partial curve].

As for `CCn1c(NC(=O)c2nn(C)cc2Br)nc2ccccc21`, under setting [1], the half-maximal activity concentration (AC50) is 18.4 µM [falling, single point].

Consider `COc1cccc(C(=O)Nc2ccc(NC(C)=O)cn2)c1`, for which the half-maximal activity concentration (AC50) under setting [1] is 6.51 µM [falling, full curve, poor fit].

On to `Cc1cccc(NC(=O)/C=C/c2ccc(Cl)cc2)n1`, for which the half-maximal activity concentration (AC50) under setting [1] is 2.06 µM [falling, full curve].

Turning to `COc1ccccc1CNS(=O)(=O)c1cc2c3c(c1)CCN3C(=O)CC2`, the AC50 under setting [1] is 1.46 µM [falling, full curve, poor fit].

For `CCc1ccc(C(O)(CNCc2ccccc2)c2ccccc2)cc1` (stereo not drawn), the concentration at half-maximal activity (AC50) under setting [1] was 3.55 µM [falling, single point].

Take `COc1ccc(Cl)cc1NC(=O)CN(C)CC(=O)Nc1ccccc1N1CCOCC1`: the concentration at half-maximal activity (AC50) was 0.1 µM [falling, full curve, poor fit] under setting [1] and 12.6 µM [falling, single point] under setting [2].

As for `Cc1ccc(/C=[N+](/C)[O-])cc1`, the AC50 under setting [1] is 35.5 µM [falling, single point].

`CC(C)c1ccc(S(=O)(=O)N2CCN(C(=O)c3cccc(F)c3)CC2)cc1`: the concentration at half-maximal activity (AC50) under setting [1] is 7.31 µM [falling, partial curve, poor fit].

As for `Cn1cccc1CC(=O)NNC(=O)Nc1ccccc1F`, under setting [1], the AC50 was 4.11 µM [falling, partial curve].

`Cc1cc(C)cc(OCC(=O)OCC(=O)NC2CCCC2)c1`: the AC50 under setting [1] was 6.51 µM [rising, single point].

For `COc1ccc(-c2nc(C(=O)NCC3CCCO3)cc3c2[nH]c2ccccc23)cc1` (stereo not drawn), the half-maximal activity concentration (AC50) under setting [1] was 10 µM [falling, partial curve, poor fit].

For the molecule `CCN(Cc1cnn(C)c1)C(=O)c1ccc2nc(Cc3cccc(Cl)c3)oc2c1`, the concentration at half-maximal activity (AC50) under setting [1] is 11.2 µM [falling, single point].

Regarding `CN(C)c1ccc(N/C=C/C(=O)c2ccccc2)cc1`, the AC50 under setting [1] was 23.1 µM [falling, partial curve, poor fit].

On to `CC(C)C(NC(=O)c1cccs1)c1nnc(SCC(=O)Nc2nccs2)n1C` (stereo not drawn), for which the AC50 is 6.51 µM [falling, partial curve, poor fit] under setting [1] and 7.31 µM [rising, partial curve, poor fit] under setting [2].

For `C/C(=N\NC(=O)C1CCCN(S(=O)(=O)c2ccccc2)C1)c1ccccn1` (stereo not drawn), the AC50 under setting [1] was 23.1 µM [falling, partial curve, poor fit].

For the molecule `COC(=O)c1ccccc1NC(=O)c1ccc(Cn2cc(Cl)cn2)o1`, the AC50 under setting [1] is 35.5 µM [falling, single point].

For the molecule `CCNC(=S)N(CCc1c(C)[nH]c2ccc(C)cc12)Cc1cccs1`, the concentration at half-maximal activity (AC50) reads like this: under setting [1], 35.5 µM [falling, single point]; under setting [2], 14.1 µM [rising, partial curve, poor fit].

As for `CC(C)OC(=O)c1c(NC(=O)C2CC=CCC2C(=O)O)sc2c1CCCCC2` (stereo not drawn), under setting [1], the AC50 was 22.4 µM [falling, partial curve, poor fit].

`Cc1nc(NCc2ccccc2)sc1C(=O)Nc1ccccc1`: the AC50 under setting [1] is 15.8 µM [falling, single point].

Take `Cc1ccc(N2CC(C(=O)Nc3ccc(Br)cc3)CC2=O)cc1` (stereo not drawn): the AC50 under setting [1] is 0.794 µM [rising, full curve, poor fit].

Take `COc1ccc(-n2ncc3c(NCCC4=CCCCC4)ncnc32)cc1`: the AC50 under setting [1] was 5.62 µM [rising, full curve, poor fit].

In the case of `CC1=Nc2ccccc2/C1=C/c1c(N)n2c(S(=O)(=O)CC(C)C)nsc2nc1=O`, under setting [1], the half-maximal activity concentration (AC50) was 11.2 µM [falling, partial curve].

As to `COc1ccc(-c2oc3ncnc(NCCCN(C)C)c3c2-c2ccc(OC)cc2)cc1`, the AC50 under setting [1] is 35.5 µM [falling, single point].

In the case of `CCN1C(=O)c2cccc3c(NC(=O)c4cccc(N5C(=O)CCC5=O)c4)ccc1c23`, the half-maximal activity concentration (AC50) was 11.2 µM [rising, partial curve] under setting [1] and 22.4 µM [falling, partial curve, poor fit] under setting [2].

In the case of `CCOC(=O)c1c(C)[nH]c2cc(Br)c(O)cc12`, the concentration at half-maximal activity (AC50) under setting [1] is 28.2 µM [rising, single point].

Take `CC1CCCCN1CC(=O)Nc1ccc2c(c1)OC(F)(F)O2` (stereo not drawn): under setting [1], the concentration at half-maximal activity (AC50) was 10 µM [rising, partial curve, poor fit].

As for `CCc1ccc2oc(-c3cc(N)ccc3O)nc2c1`, the concentration at half-maximal activity (AC50) under setting [1] was 0.326 µM [rising, full curve].

Consider `O=C(NCc1ccccn1)c1ccc2nc(-c3ccco3)c(-c3ccco3)nc2c1`, for which the AC50 under setting [2] was 23.1 µM [rising, single point].

With `CC(=O)c1ccc(-c2ccc([C@H]3[C@@H]4C=CCC[C@@]4(C)C(=O)N3Cc3ccccc3)c(F)c2)cc1`, the AC50 under setting [1] is 6.31 µM [falling, single point].

Consider `O=c1c2ccccc2nnn1CSc1ccccc1`, for which the AC50 under setting [1] is 3.66 µM [rising, single point].

With `O=C(Nc1ccc(OC(F)F)c(Cl)c1)c1cccc(OC(F)F)c1`, the AC50 under setting [1] is 29.1 µM [falling, single point].

For the molecule `CCOc1ccc(CNc2ccc3c(c2)ncn3C)cc1`, the AC50 under setting [1] was 6.51 µM [rising, full curve, poor fit].

In the case of `CC(NC(=O)c1cc(Sc2ccc(F)cc2F)nc2ccccc12)c1ccccc1` (stereo not drawn), the concentration at half-maximal activity (AC50) under setting [1] was 12.6 µM [falling, single point].

For the molecule `COC(=O)c1ccc(COc2ccc(-c3nnn(CC(N)=O)n3)cc2)cc1`, the AC50 under setting [1] was 0.794 µM [falling, full curve].

In the case of `Cc1ccc(C)c(N2CCN(CCCNC(=O)Nc3cc(Cl)ccc3C)CC2)c1`, the concentration at half-maximal activity (AC50) under setting [1] is 6.31 µM [rising, partial curve, poor fit].

On to `CN(CC(=O)N1CCN(c2ccccn2)CC1)S(=O)(=O)c1ccc(Br)cc1`, for which the concentration at half-maximal activity (AC50) under setting [1] is 14.1 µM [rising, single point].

For `Cc1nn(-c2ccccc2)c(Cl)c1/C=C(\C#N)C(=O)NC(C)C`, under setting [1], the AC50 was 9.2 µM [falling, partial curve, poor fit].

Consider `COc1ccccc1C(=O)OCc1c(-c2ccccc2)ncc2ccccc12`, for which the concentration at half-maximal activity (AC50) under setting [1] was 23.1 µM [falling, single point].

Consider `Cc1cc(=O)oc(C)c1C(=O)OCC(=O)c1ccc(Cl)cc1`, for which, under setting [1], the half-maximal activity concentration (AC50) was 17.8 µM [rising, single point].

`CCc1nnc(NC(=O)C2(C)COC(c3ccc(OC)cc3)OC2)s1` (stereo not drawn): under setting [1], the AC50 is 0.891 µM [rising, full curve].

Consider `COc1cc(CNc2ccccc2)c([N+](=O)[O-])cc1OC`, for which the AC50 under setting [1] is 14.1 µM [rising, single point].

On to `O=C1c2ccccc2NC(c2ccc(F)cc2)N1Cc1ccccc1` (stereo not drawn), for which, under setting [1], the half-maximal activity concentration (AC50) is 35.5 µM [falling, single point].

For the molecule `O=C(NCCc1ccccn1)C1CCCN(S(=O)(=O)Cc2ccccc2)C1` (stereo not drawn), under setting [1], the AC50 was 3.26 µM [falling, single point].

By AC50 is commonly meant the concentration giving half of the maximal activity seen.
